From patent publication US20140242083A1 (Hoffmann-La Roche, published 2014)
Substitutions are numbered along the chain they refer to. Results are given in words; binding and its absence hold for the method and conditions named. Some entries that bind do so weakly or less than the wild type.

Protein sequences, listed by entry. Tags and fused reporters are not part of them. Residues count along the entry.
UniProt Q6UVK1, residues 30-2322: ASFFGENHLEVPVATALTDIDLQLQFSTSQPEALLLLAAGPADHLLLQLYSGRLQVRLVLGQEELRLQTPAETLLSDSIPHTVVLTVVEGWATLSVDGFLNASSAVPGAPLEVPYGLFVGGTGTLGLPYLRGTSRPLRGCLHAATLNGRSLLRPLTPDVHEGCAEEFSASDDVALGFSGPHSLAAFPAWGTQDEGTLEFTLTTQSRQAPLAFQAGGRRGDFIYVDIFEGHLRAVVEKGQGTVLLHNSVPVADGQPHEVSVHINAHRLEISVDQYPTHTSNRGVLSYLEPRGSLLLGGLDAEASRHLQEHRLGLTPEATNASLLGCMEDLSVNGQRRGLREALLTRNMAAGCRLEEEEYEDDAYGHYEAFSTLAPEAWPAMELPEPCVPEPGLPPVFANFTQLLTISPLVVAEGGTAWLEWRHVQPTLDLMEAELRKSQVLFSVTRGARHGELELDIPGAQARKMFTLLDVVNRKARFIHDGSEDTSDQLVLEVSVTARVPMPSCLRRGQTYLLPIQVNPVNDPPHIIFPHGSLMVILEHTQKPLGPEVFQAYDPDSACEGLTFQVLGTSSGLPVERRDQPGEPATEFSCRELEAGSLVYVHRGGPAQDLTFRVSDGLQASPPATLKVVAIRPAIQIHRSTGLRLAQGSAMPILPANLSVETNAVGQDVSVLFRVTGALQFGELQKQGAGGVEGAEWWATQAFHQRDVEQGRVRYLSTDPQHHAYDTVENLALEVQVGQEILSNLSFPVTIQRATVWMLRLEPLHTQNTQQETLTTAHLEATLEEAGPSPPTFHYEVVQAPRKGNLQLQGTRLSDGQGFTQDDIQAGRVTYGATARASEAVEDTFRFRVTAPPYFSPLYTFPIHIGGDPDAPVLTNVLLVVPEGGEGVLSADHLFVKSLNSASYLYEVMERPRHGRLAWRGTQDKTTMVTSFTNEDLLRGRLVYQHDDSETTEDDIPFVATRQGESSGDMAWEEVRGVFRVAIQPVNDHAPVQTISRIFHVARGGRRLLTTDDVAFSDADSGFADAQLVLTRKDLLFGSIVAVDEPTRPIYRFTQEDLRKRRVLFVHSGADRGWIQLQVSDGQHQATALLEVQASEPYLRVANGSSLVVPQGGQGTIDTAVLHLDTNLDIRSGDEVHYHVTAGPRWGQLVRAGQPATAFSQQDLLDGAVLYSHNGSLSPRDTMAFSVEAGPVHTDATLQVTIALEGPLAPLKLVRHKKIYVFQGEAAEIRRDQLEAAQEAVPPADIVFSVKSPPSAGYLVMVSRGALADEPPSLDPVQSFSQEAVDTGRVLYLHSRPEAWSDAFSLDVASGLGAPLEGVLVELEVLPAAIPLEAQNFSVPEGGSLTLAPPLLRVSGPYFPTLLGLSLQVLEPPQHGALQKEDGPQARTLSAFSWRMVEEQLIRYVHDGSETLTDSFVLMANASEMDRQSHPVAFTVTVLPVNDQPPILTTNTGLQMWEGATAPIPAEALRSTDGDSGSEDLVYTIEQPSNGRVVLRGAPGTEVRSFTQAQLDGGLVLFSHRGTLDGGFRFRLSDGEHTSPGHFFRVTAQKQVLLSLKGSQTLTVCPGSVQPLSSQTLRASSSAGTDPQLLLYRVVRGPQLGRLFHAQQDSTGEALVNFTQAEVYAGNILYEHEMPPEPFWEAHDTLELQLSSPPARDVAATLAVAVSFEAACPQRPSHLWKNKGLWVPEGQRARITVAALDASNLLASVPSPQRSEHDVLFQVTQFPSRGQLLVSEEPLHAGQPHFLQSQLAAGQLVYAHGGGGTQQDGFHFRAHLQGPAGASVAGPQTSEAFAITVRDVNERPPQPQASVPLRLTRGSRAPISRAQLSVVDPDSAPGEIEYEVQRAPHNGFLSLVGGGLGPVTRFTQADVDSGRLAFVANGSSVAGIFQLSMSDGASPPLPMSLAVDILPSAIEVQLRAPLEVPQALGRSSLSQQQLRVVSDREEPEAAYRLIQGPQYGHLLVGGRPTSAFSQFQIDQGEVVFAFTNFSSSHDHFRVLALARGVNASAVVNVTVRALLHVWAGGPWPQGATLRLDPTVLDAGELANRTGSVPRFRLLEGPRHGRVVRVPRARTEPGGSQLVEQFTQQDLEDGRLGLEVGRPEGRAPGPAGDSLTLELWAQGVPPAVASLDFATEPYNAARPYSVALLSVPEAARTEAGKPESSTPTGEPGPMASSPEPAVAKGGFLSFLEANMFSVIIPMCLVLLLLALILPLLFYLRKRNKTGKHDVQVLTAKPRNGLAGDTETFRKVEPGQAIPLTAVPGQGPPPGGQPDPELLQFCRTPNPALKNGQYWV

Target: MCSP antigen (as tested in Example 7, FIG. 8) (UniProt Q6UVK1)
Assay: antibody titration with mean fluorescence read-out (cells not named)

B1: chimeric antibody LC007 (antibody, human IgG1, kappa, V domains shown)
VH: EVQLQESGPGLVKPSQSLSLTCSVTGYSITSGYYWNWIRQFPGNKLEWMGYITYDGSNNYNPSLKNRISITRDTSKNQFFLKLNSVTTEDTATYYCADFDYWGQGTTLTVSS
VL: DIVLTQSPSSLSASLGDRVTISCSASQGIRNYLNWYQQRPDGTVKLLIYYTSSLHSGVPSRFSGSGSGTDYSLTISNLEPEDIATYYCQQYSKLPWTFGGGTKLEIKR
notes: all such entries are written under the chimeric antibody; also called LC007 antibody; LC007 wt
For B1, the binding was “binds”.

B2: LC007 humanized antibody with heavy chain construct M4-1 and light chain ML1 (antibody, V domains shown)
VH: QVQLQESGPGLVKPSQTLSLTCTVSGYSITSGYYWNWIRQHPGKGLEWIGYITYDGSNNYNPSLKSRVTISRDTSKNQFSLKLSSVTAADTAVYYCADFDYWGQGTLVTVSS
VL: DIQMTQSPSSLSASVGDRVTITCSASQGIRNYLNWYQQKPGKAPKLLIYYTSSLHSGVPSRFSGSGSGTDFTLTISSLQPEDFATYYCQQYSKLPWTFGQGTKVEIK
In the case of B2, the binding is reported as “binds”.

B3: antibodies having the heavy chain construct M4-3 (Example 7) (antibody, V domains shown)
VH: B2 VH with Y27G
VL: B2 VL
For B3, the binding was “binds”.

B4: M4-6 ML1 (antibody, V domains shown)
VH: B2 VH with R72V
VL: B2 VL
In the case of B4, the binding is reported as “binds”.

B5: M4-1 ML2 (antibody, V domains shown)
VH: B2 VH
VL: B2 VL with S24R
In the case of B5, the binding is reported as “binds”.
